Experimental findings from article doi:10.1101/2021.01.13.21249429 are described below.

Amino acid sequences for entries named in this document (tags omitted). A change or cut given only in a name is not applied to a line headed by its entry. Residues count along the entry.
UniProt P07204: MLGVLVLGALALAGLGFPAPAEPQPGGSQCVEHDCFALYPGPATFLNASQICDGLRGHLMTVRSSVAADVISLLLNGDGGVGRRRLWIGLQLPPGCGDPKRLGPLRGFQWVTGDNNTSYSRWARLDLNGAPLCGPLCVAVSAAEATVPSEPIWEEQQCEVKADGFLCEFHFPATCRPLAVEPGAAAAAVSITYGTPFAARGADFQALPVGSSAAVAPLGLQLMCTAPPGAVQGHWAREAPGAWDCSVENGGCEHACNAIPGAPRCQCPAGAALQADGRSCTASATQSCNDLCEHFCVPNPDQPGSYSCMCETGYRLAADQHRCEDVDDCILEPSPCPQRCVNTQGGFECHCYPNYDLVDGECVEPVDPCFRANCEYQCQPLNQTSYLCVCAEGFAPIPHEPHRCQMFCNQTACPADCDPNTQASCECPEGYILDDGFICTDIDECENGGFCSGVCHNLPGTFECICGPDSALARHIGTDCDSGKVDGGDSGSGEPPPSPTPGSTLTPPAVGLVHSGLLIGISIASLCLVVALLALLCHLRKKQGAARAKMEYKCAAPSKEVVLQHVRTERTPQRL
UniProt O15123, residues 19-496: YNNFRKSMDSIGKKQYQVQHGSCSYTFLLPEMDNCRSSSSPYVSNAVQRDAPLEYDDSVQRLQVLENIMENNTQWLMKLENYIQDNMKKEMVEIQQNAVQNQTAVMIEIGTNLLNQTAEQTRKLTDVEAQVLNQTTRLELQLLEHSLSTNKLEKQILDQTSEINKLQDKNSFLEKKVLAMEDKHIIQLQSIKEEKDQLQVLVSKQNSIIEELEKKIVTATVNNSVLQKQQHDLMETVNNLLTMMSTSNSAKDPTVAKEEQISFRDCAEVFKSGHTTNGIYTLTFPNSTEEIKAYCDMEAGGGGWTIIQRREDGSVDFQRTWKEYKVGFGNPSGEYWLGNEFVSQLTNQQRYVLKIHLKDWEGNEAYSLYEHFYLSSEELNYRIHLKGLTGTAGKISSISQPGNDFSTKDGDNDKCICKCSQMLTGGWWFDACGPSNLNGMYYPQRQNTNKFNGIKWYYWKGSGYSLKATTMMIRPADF

No constants are given. Whether binding was seen depends on the method and setting. In cells and extracts the contact can be indirect. A result given as binding can be weak or reduced; the word gives no strength.

The experiment deals with circulating thrombomodulin in human plasma (human (endogenous in plasma)) (UniProt P07204). Description: co-IP.

In the case of “Angiopoietin-2 (ANGPT2), circulating in human plasma (from UniProt O15123 19-496)”, the binding entry is “binds”.
